Results: PubChem BioAssay AID248 (DTP/NCI, 2004)
The list does not hold the whole screen: it gathers tests that were run many times, whatever their T/C, doses with no T/C, and many T/C values between a quarter and a half above the control. Other doses and runs of a compound stand elsewhere. T/C: endpoint of the treated group in % of that of the vehicle group. Some doses have a count of surviving animals in place of a T/C: the source files T/C as zero there, which appears to mark a toxic dose or a test without result, not a measured value. Some doses without a T/C left all or most animals alive at the check, yet need not have been tolerated: the source hardly ever lists a survival T/C far under the control, and the zero likely stands for such cases as well. Counts of survivors are from the toxicity check (mostly the fifth day) where no day follows; animals may have died later. Schedules are NCI's codes, taken here to give the interval after Q, in days (D) or hours (H), and the number of doses after X. For survival time, this PubChem deposit counts one and a half times the control or more as active, and values a quarter to a half above the control carry no call in these data; other NCI protocols may use other cut-offs. Some entries hold several experiments; their values stand side by side, smallest first.

System: L1210 leukemia ip in BDF1 mice, survival T/C
Test: NCI In Vivo Anticancer Drug Screen. Data for tumor model L1210 Leukemia (intraperitoneal) in B6D2F1 (BDF1) mice
Conditions: T/C endpoint: mean survival time, higher T/C = longer survival
[1] = dose: 200.0 mg/kg/injection, schedule: Q01DX009 (ip), vehicle: saline
[2] = dose: 400.0 mg/kg/injection, schedule: Q01DX009 (ip), vehicle: saline
[3] = dose: 400.0 mg/kg/injection, schedule: Q04DX003 (ip), vehicle: Klucel (hydroxypropylcellulose) (HPC)

Cc1ccc(C(SCC(N)C(=O)O)(c2ccc(C)cc2)c2ccc(C)cc2)cc1 (centres undefined)
T/C (dose: 11.0 mg/kg/injection, schedule: Q01DX009 (ip), vehicle: saline): 133 % of control | T/C (dose: 16.0 mg/kg/injection, schedule: Q01DX009 (ip), vehicle: saline): 136 % of control | T/C (dose: 25.0 mg/kg/injection, schedule: Q01DX009 (ip), vehicle: saline): 134 and 142 % of control | T/C (dose: 50.0 mg/kg/injection, schedule: Q01DX009 (ip), vehicle: saline): 138 % of control | T/C (dose: 100.0 mg/kg/injection, schedule: Q01DX009 (ip), vehicle: other): 141 % of control | T/C (dose: 100.0 mg/kg/injection, schedule: Q01DX009 (ip), vehicle: saline): 145 % of control | T/C (dose: 200.0 mg/kg/injection, schedule: Q01DX009 (ip), vehicle: other): 143 % of control | survivor count [1]: 6 of 6 | survivor count [2]: 6 of 6

COc1c(O)c2c(c3cc(C(=O)N4CCc5c4c(O)c(OC)c4[nH]c(C(=O)N6CC7CC78C6=CC(=O)c6[nH]cc(C)c68)cc54)[nH]c13)CCN2C(N)=O (centres undefined)
T/C (dose: 25.0 micrograms/kg/injection, schedule: Q01DX009 (ip), vehicle: DMSO): 132 % of control | T/C (dose: 50.0 micrograms/kg/injection, schedule: Q01DX009 (ip), vehicle: DMSO): 125 % of control | survivor count (dose: 200.0 micrograms/kg/injection, schedule: Q01DX009 (ip), vehicle: DMSO): 6 of 6

CN(C)CC(C)(C)CN1c2ccccc2Sc2ccccc21
survivor count (dose: 100.0 mg/kg/injection, schedule: Q04DX003 (ip), vehicle: saline): 3 of 4 | survivor count [1]: 0 of 6 | survivor count (dose: 200.0 mg/kg/injection, schedule: Q04DX003 (ip), vehicle: saline): 2 of 4 | survivor count [2]: 0 of 6 | survivor count (dose: 400.0 mg/kg/injection, schedule: Q04DX003 (ip), vehicle: saline): 0 of 4

CC(C)(C)C1COP(=O)(C(C)(C)C)OC1 (centres undefined)
survivor count (dose: 50.0 mg/kg/injection, schedule: Q04DX003 (ip), vehicle: Klucel (hydroxypropylcellulose) (HPC)): 4 of 6 | survivor count (dose: 100.0 mg/kg/injection, schedule: Q04DX003 (ip), vehicle: Klucel (hydroxypropylcellulose) (HPC)): 0 of 6 | survivor count (dose: 200.0 mg/kg/injection, schedule: Q04DX003 (ip), vehicle: Klucel (hydroxypropylcellulose) (HPC)): 0 of 6 | survivor count [3]: 0 of 6

CCOP1(=S)OCCO1
survivor count [3]: 2 of 6

CCN(CC)CCCC(C)Nc1ccnc2cc(C(F)(F)F)ccc12 (centres undefined)
survivor count (dose: 80.0 mg/kg/injection, schedule: Q01DX001 (ip), vehicle: carboxymethylcellulose (CMC)): 0 of 4 | survivor count (dose: 100.0 mg/kg/injection, schedule: Q01DX001 (ip), vehicle: carboxymethylcellulose (CMC)): 0 of 4 | survivor count (dose: 200.0 mg/kg/injection, schedule: Q01DX001 (ip), vehicle: carboxymethylcellulose (CMC)): 0 of 4 | survivor count (dose: 400.0 mg/kg/injection, schedule: Q01DX001 (ip), vehicle: carboxymethylcellulose (CMC)): 0 of 4

NC(N1CC1)(C(F)(F)F)C(F)(F)F
survivor count (dose: 100.0 mg/kg/injection, schedule: Q01DX001 (ip), vehicle: saline): 2 of 6 | survivor count (dose: 200.0 mg/kg/injection, schedule: Q01DX001 (ip), vehicle: saline): 0 of 6 | survivor count (dose: 400.0 mg/kg/injection, schedule: Q01DX001 (ip), vehicle: saline): 0 of 6
